Laboratory results: patent US20240115496A1, “A COMPOUND DRY POWDER INHALANT AND USE THEREOF” (TIANJIN UNIVERSITY OF TRADITIONAL CHINESE MEDICINE, priority 2021, published 2024)
Where a name gives a salt, the structure may show the parent alone. For some of these results: The name of at least one read-out is uncertain. Some entries share one result that the patent states for a list of compounds.

How the values were obtained:
[1] = In vivo pharmacokinetics, plasma (UPLC-MS/MS); design: species or system rat; conditions: tail intravenous injection group, 9 mg/kg
Method: (§1) SPF-grade healthy SD male rats, body weight 180-220 g, purchased from SPF (Beijing) Biotechnology Co., Ltd (Certificate No. SCXK (Beijing) 2019-0010), were conventionally reared under (23±2)° C., humidity: (50±10)%. This study was conducted with the approval of the Animal Experiment Center of Tianjin University of Traditional Chinese Medicine.
108 SPF-grade SD male rats were randomly divided into tail intravenous injection group and pulmonary administration group, with 9 time points of 2 min, 4 min, 10 min, 15 min, 30 min, 1 h, 2 h, 4 h and 6 h per group, 6 rats per time point per group. The rats were fasted for 12 h before the experiment, with water provided. The rats were weighed (to calculate the dose) and numbered, and both groups were intraperitoneally injected with 10% chloral hydrate at a dose of 2 mL/kg. Group 1 was administered BA/AH-DPI saline solution by tail intravenous injection at a dose of 9 mg/kg. Group 2 was administered 3 mg of BA/AH-DPI fine powder at the same dose by spray administration with a DP-4 tracheal insufflator (1.5 mL of air was pushed each time, 3-4 times consecutively). […]
100 μL of the plasma sample or lung tissue supernatant was precisely absorbed, and 200 μL (100 ng/mL) of methanol solution containing the internal standard was added. […] The contents of BA and AH were determined by UPLC-MS/MS method. […]

[2] = In vivo pharmacokinetics, lung tissue homogenate (UPLC-MS/MS); design: species or system rat
Method: as §1
108 SPF-grade SD male rats were randomly divided into tail intravenous injection group and pulmonary administration group, with 9 time points of 2 min, 4 min, 10 min, 15 min, 30 min, 1 h, 2 h, 4 h and 6 h per group, 6 rats per time point per group. The rats were fasted for 12 h before the experiment, with water provided. The rats were weighed (to calculate the dose) and numbered, and both groups were intraperitoneally injected with 10% chloral hydrate at a dose of 2 mL/kg. Group 1 was administered BA/AH-DPI saline solution by tail intravenous injection at a dose of 9 mg/kg. Group 2 was administered 3 mg of BA/AH-DPI fine powder at the same dose by spray administration with a DP-4 tracheal insufflator (1.5 mL of air was pushed each time, 3-4 times consecutively). Blood was sampled from the abdominal aorta of the rats in both groups at the above time points after drug administration, and the rats were executed. The obtained whole blood was placed in a centrifuge tube with sodium heparin, centrifuged at 4000 r/min for 10 min, and the upper layer of plasma was separated and stored a refrigerator at −80° C. After blood collection, the thoracic cavity was quickly opened and the lungs of the rats were isolated. The small amount of floating blood on the surface of the lung tissue was washed with saline in an ice bath. The surface of the lung tissue was blotted with filter paper. The trachea was cut off, wrapped in tin foil and placed in a 10 mL centrifuge tube. The lung was weighed precisely, and stored in a refrigerator at −80° C.
The lung tissues were added to saline in a weight to volume ratio of 1:4 (g:mL). A homogenate was obtained by beating, dispersing and evenly grinding with a homogenizer under an ice water bath, and centrifuged at 6500 r/min for 20 min to obtain the supernatant of the lung tissue homogenate.
100 μL of the plasma sample or lung tissue supernatant was precisely absorbed, and 200 μL (100 ng/mL) of methanol solution containing the internal standard was added. The mixture was vortexed and mixed for 3 min, and centrifuged at 12000 r/min for 10 min to obtain the supernatant as the finished sample. The contents of BA and AH were determined by UPLC-MS/MS method.
Electrospray ion source (ESI source); scan mode: positive (ESI+) detection; detection mode: multi-reactive ion monitoring (MRM). Electrospray voltage: 4 kV; atomization gas: N2; spray gas flow rate (Gas1): 15 psi; ion source temperature: 300° C. […]

[3] = tested on: rats having Bleo-induced pulmonary fibrosis; assay: Determination of lung factor in rats; format: in vivo, rat; conditions: Bleo rats after 28 days of treatment, n = 6; Bleo group 9.45, normal 4.09
Method: 48 SPF healthy SD male rats (weight of 180-220 g) were randomly divided into 8 groups, 6 rats for each group: (1) normal group (control group): normal rearing in the animal center; (2) sham group: this group was given the same dose of air by pulmonary administration; (3) Bleo model group: 100 μL of Bleo solution with a concentration of 12.5 mg/mL was administered through the tracheal intubation, and the rats were rotated for 5 min after drug administration for use, referred to as the Bleo group or the model group in the present application; (4) Bleo+BA-DPI group: the same modeling method as the Bleo model group was used, and BA-DPI was administered through the tracheal intubation via DP-4 rat dry powder lung drug delivery device (manufacturer: Beijing YSKD Biotechnology Co.) at a dose of 9 mg/kg, 3 mg per day for 28 days; (5) Bleo+AH-DPI group (same method as 4); (6) Bleo+BA/AH-DPI group (same method as 4); (7) Bleo+tail intravenous injection group: the formulation solution was administered by tail intravenous injection at a concentration of 3 mg/ml, 9 mg/kg, for a total of 28 days, starting from the second day after the modeling; (8) Bleo+pirfenidone group: 2 ml per day at a concentration of 11.6 mg/ml was administered by gavage starting from the second day after successful modeling for 28 days. […]

Nc1c(Br)cc(Br)cc1CNC1CCC(O)CC1 (stereo not shown) [AH, ambroxol hydrochloride]
Vz/F (apparent volume of distribution) ([1]; AH in rat plasma): 34.77573 ± 16.91368 L/kg | Vz/F (apparent volume of distribution) ([2]; AH in rat lung tissue, pulmonary administration group, BA/AH-DPI 9 mg/kg): 1883.19 ± 523.72 g/kg | Vz/F (apparent volume of distribution) ([2]; AH in rat lung tissue, tail intravenous injection group, 9 mg/kg): 2489.18 ± 316.18 g/kg

O=C(O)[C@H]1O[C@@H](Oc2cc3oc(-c4ccccc4)cc(=O)c3c(O)c2O)[C@H](O)[C@@H](O)[C@@H]1O [BA, baicalin]
Vz/F (apparent volume of distribution) ([1]; BA in rat plasma): 7.53775 ± 8.09084 L/kg | Vz/F (apparent volume of distribution) ([2]; BA in rat lung tissue, pulmonary administration group, BA/AH-DPI 9 mg/kg): 1630.13 ± 584.28 g/kg | Vz/F (apparent volume of distribution) ([2]; BA in rat lung tissue, tail intravenous injection group, 9 mg/kg): 78080.06 ± 69803.73 g/kg

Cc1ccc(=O)n(-c2ccccc2)c1 [pirfenidone, Pirfenidone]
Lung factor [3]: 6-7
